Laboratory results from patent US20170189504A1, “NOVEL PEPTIDES AND COMBINATION OF PEPTIDES FOR USE IN IMMUNOTHERAPY AGAINST VARIOUS CANCERS” (immatics biotechnologies GmbH, priority 2015, published 2017).

Key:
source genes (mRNA) [1] = assay: Expression profiling of source genes by in-house RNASeq of tumor and normal tissues (Table 18, FIG. 2); design: species or system human; key: very highly over-expressed in tumors compared to a panel of normal tissues (+++); highly over-expressed in tumors compared to a panel of normal tissues (++); over-expressed in tumors compared to a panel of normal tissues (+); conditions: source gene of peptide; for Expression score GBC_CCC: gallbladder adenocarcinoma and cholangiocarcinoma (N = 3) vs panel of normal tissues; for Expression score GB: glioblastoma (N = 24) vs panel of normal tissues; for Expression score NSCLC: non-small cell lung cancer (N = 11) vs panel of normal tissues; for Expression score OC: ovarian cancer (N = 12) vs panel of normal tissues
HLA-A*02 = assay: Identification and relative LC-MS quantitation of HLA-A*02-presented tumor-associated peptides on tissue samples (presentation profiles, Tables 13A, 13B, 15, FIG. 1); design: species or system human; key to Presentation score NHL / Presentation score CLL / Presentation score BRCA / Presentation score AML / Presentation score GB / Presentation score NSCLC / Presentation score GBC_CCC / Presentation score UEC / Presentation score MEL / Presentation score OSCAR / Presentation score GC / Presentation score UBC / Presentation score OC / Presentation score RCC / Presentation score CRC / Presentation score PCA / Presentation score HCC / Presentation score PC / Presentation score SCLC: specifically presented on tumors (++++); very highly over-presented on tumors compared to a panel of normal tissues (+++); highly over-presented on tumors compared to a panel of normal tissues (++); over-presented on tumors compared to a panel of normal tissues (+); conditions: for Presentation score NSCLC: non-small cell lung cancer (N = 90) vs panel of normal tissues (N = 262); for Peptide Presentation on cancer entities: Table 13A, HLA-A*02-binding tumor-associated peptides, cancer entities on which the peptide was found presented
source genes (mRNA) [2] = assay: Gene and exon expression of source genes, TCGA tumor samples compared with normal tissue samples (Lonsdale, 2013) (Table 17); design: species or system human; conditions: for Target coverage: over-expression category of source gene, BLCA: Bladder urothelial carcinoma (N = 408); for Target coverage: over-expression category of source gene, READ: Colon and rectal adenocarcinoma (N = 167); for Target coverage: over-expression category of source gene, COAD: Colon and rectal adenocarcinoma (N = 462); for Target coverage: over-expression category of source gene, ESCA: Esophageal cancer (N = 185); for Target coverage: over-expression category of source gene, LUAD: Lung adenocarcinoma (N = 517); for Target coverage: over-expression category of source gene, LUSC: Lung squamous cell carcinoma (N = 503); for Target coverage: over-expression category of source gene, SKCM: Skin cutaneous melanoma (N = 473); for Target coverage: over-expression category of source gene, STAD: Stomach adenocarcinoma (N = 415); for Target coverage: over-expression category of source gene, UCEC: Uterine corpus endometrial carcinoma (N = 546)
[3] = cutoff more than 2-fold above highest 75% percentile of normal tissue samples

Row | Substance | Expression score GBC_CCC (source genes (mRNA) [1]) | Expression score GB (source genes (mRNA) [1]) | Expression score NSCLC (source genes (mRNA) [1]) | Expression score OC (source genes (mRNA) [1]) | Presentation score NSCLC (HLA-A*02; HLA-A*02 peptides) | Peptide Presentation on cancer entities (HLA-A*02) | Target coverage: over-expression category of source gene, BLCA (source genes (mRNA) [2]; [3]) | Target coverage: over-expression category of source gene, READ (source genes (mRNA) [2]; [3]) | Target coverage: over-expression category of source gene, COAD (source genes (mRNA) [2]; [3]) | Target coverage: over-expression category of source gene, ESCA (source genes (mRNA) [2]; [3]) | Target coverage: over-expression category of source gene, LUAD (source genes (mRNA) [2]; [3]) | Target coverage: over-expression category of source gene, LUSC (source genes (mRNA) [2]; [3]) | Target coverage: over-expression category of source gene, SKCM (source genes (mRNA) [2]; [3]) | Target coverage: over-expression category of source gene, STAD (source genes (mRNA) [2]; [3]) | Target coverage: over-expression category of source gene, UCEC (source genes (mRNA) [2]; [3]) | also measured
1 | 61: peptide found in MSH2 (gene looked up) (AIVKEIVNI; listed as Homo sapiens) [compound 61] | + | + | + | ++ | ++++ | GC, NSCLC, OSCAR | B (>= 20% of tumors above the cutoff, but <50%) | B (>= 20% of tumors above the cutoff, but <50%) | B (>= 20% of tumors above the cutoff, but <50%) | B (>= 20% of tumors above the cutoff, but <50%) | C (>=5% of tumors above the cutoff, but <20%) | B (>= 20% of tumors above the cutoff, but <50%) | B (>= 20% of tumors above the cutoff, but <50%) | C (>=5% of tumors above the cutoff, but <20%) | B (>= 20% of tumors above the cutoff, but <50%) | Expression score BRCA (source genes (mRNA) [1]; BRCA tumors vs panel of normal tissues): +; Expression score OSCAR (source genes (mRNA) [1]; esophageal cancer incl. gastric-esophageal junction (N = 11) vs panel of normal tissues): +; Expression score NHL (source genes (mRNA) [1]; non-Hodgkin lymphoma (N = 10) vs panel of normal tissues): +; Expression score SCLC (source genes (mRNA) [1]; small cell lung cancer (N = 10) vs panel of normal tissues): +++; Expression score UEC (source genes (mRNA) [1]; uterine cancer (N = 10) vs panel of normal tissues): +; Presentation score OSCAR (HLA-A*02; HLA-A*02 peptides, esophageal cancer, including cancer of the gastric-esophageal junction (N = 17) vs panel of normal tissues (N = 262)): ++++; Presentation score GC (HLA-A*02; HLA-A*02 peptides, gastric cancer (N = 29) vs panel of normal tissues (N = 262)): ++++; Target coverage: over-expression category of source gene, LAML (source genes (mRNA) [2]; Acute Myeloid Leukemia (N = 173), cutoff more than 2-fold above highest 75% percentile of normal tissue samples): B (>= 20% of tumors above the cutoff, but <50%); Target coverage: over-expression category of source gene, BRCA (source genes (mRNA) [2]; Breast cancer (N = 1104), cutoff more than 2-fold above highest 75% percentile of high and medium risk normal tissue samples): B (>= 20% of tumors above the cutoff, but <50%); Target coverage: over-expression category of source gene, GBM (source genes (mRNA) [2]; Glioblastoma multiforme (N = 169), cutoff more than 2-fold above highest 75% percentile of normal tissue samples): B (>= 20% of tumors above the cutoff, but <50%); Target coverage: over-expression category of source gene, LGG (source genes (mRNA) [2]; Lower grade glioma (N = 534), cutoff more than 2-fold above highest 75% percentile of normal tissue samples): C (>=5% of tumors above the cutoff, but <20%); Target coverage: over-expression category of source gene, DLBC (source genes (mRNA) [2]; Lymphoid neoplasm diffuse large B-cell lymphoma (N = 48), cutoff more than 2-fold above highest 75% percentile of normal tissue samples): B (>= 20% of tumors above the cutoff, but <50%); Target coverage: over-expression category of source gene, OV (source genes (mRNA) [2]; Ovarian serous cystadenocarcinoma (N = 309), cutoff more than 2-fold above highest 75% percentile of normal tissue samples): A (>=50% of tumors above the cutoff)
2 | 62: peptide found in MET (gene looked up) (ALNPELVQA; listed as Homo sapiens) [compound 62] | ++ | ++ | +++ | + | ++++ | GB, NSCLC, RCC | C (>=5% of tumors above the cutoff, but <20%) | A (>=50% of tumors above the cutoff) | A (>=50% of tumors above the cutoff) | A (>=50% of tumors above the cutoff) | A (>=50% of tumors above the cutoff) | B (>= 20% of tumors above the cutoff, but <50%) | B (>= 20% of tumors above the cutoff, but <50%) | B (>= 20% of tumors above the cutoff, but <50%) | C (>=5% of tumors above the cutoff, but <20%) | Expression score CRC (source genes (mRNA) [1]; colorectal cancer (N = 20) vs panel of normal tissues): +; Expression score GC (source genes (mRNA) [1]; gastric cancer (N = 11) vs panel of normal tissues): ++; Expression score HCC (source genes (mRNA) [1]; hepatocellular carcinoma (N = 15) vs panel of normal tissues): +; Expression score PC (source genes (mRNA) [1]; pancreatic cancer (N = 26) vs panel of normal tissues): +; Expression score RCC (source genes (mRNA) [1]; renal cell carcinoma (N = 10) vs panel of normal tissues): +++; Expression score UBC (source genes (mRNA) [1]; urinary bladder cancer (N = 10) vs panel of normal tissues): +; Presentation score GB (HLA-A*02; HLA-A*02 peptides, glioblastoma (N = 41) vs panel of normal tissues (N = 262)): ++++; Presentation score RCC (HLA-A*02; HLA-A*02 peptides, renal cell carcinoma (N = 20) vs panel of normal tissues (N = 262)): ++++; Target coverage: over-expression category of source gene, CHOL (source genes (mRNA) [2]; Cholangiocarcinoma (N = 36), cutoff more than 2-fold above highest 75% percentile of normal tissue samples): B (>= 20% of tumors above the cutoff, but <50%); Target coverage: over-expression category of source gene, KIRC (source genes (mRNA) [2]; Clear cell kidney carcinoma (N = 534), cutoff more than 2-fold above highest 75% percentile of normal tissue samples): A (>=50% of tumors above the cutoff); Target coverage: over-expression category of source gene, KICH (source genes (mRNA) [2]; Kidney chromophobe (N = 66), cutoff more than 2-fold above highest 75% percentile of normal tissue samples): A (>=50% of tumors above the cutoff); Target coverage: over-expression category of source gene, LIHC (source genes (mRNA) [2]; Liver hepatocellular carcinoma (N = 374), cutoff more than 2-fold above highest 75% percentile of normal tissue samples): B (>= 20% of tumors above the cutoff, but <50%); Target coverage: over-expression category of source gene, PAAD (source genes (mRNA) [2]; Pancreatic ductal adenocarcinoma (N = 179), cutoff more than 2-fold above highest 75% percentile of normal tissue samples): B (>= 20% of tumors above the cutoff, but <50%); Target coverage: over-expression category of source gene, KIRP (source genes (mRNA) [2]; Papillary kidney carcinoma (N = 291), cutoff more than 2-fold above highest 75% percentile of normal tissue samples): A (>=50% of tumors above the cutoff)

For part of these data: Expression values are those of the mRNA of the gene that encodes the peptide; a gene is named only where it was looked up.
